Patent US20200354468A1 (US Dept. of Health and Human Services, published 2020)
These are yes or no findings as the source states them, for the method shown. Some binding calls cover weakened binding; strength is not graded here.

What was measured:
[1] = target: T1, CD133 protein (human), as expressed by human cell lines and tumor tissue (Homo sapiens) (UniProt O43490); assay: immunofluorescence on FFPE cell pellets and xenograft
T1 sequence (chain, unglycosylated (97 kDa) and glycosylated (about 120-133 kDa) forms detected): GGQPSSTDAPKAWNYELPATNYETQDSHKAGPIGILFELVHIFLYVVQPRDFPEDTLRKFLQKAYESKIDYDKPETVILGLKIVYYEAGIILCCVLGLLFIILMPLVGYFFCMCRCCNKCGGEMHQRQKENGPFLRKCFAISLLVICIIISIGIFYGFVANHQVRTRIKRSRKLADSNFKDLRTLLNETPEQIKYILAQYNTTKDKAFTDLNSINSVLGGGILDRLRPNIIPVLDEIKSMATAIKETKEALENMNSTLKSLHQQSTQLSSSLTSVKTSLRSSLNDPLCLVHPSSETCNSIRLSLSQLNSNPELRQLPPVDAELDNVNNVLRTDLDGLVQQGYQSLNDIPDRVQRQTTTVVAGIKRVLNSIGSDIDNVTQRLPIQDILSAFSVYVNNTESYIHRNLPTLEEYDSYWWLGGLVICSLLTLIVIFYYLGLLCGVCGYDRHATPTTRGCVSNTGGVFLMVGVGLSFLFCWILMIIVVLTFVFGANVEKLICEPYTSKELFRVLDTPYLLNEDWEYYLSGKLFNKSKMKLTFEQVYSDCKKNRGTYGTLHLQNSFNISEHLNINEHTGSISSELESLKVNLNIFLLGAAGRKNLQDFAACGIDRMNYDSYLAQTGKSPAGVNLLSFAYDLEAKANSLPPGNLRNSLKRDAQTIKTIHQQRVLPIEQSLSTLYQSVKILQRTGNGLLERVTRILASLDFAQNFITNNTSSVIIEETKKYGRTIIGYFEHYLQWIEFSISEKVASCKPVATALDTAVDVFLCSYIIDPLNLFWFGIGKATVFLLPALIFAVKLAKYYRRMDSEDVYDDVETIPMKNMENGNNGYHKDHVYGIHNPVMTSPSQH

[2] = target: T1, CD133 protein (human), as expressed by human cell lines and tumor tissue (Homo sapiens); assay: immunofluorescence on FFPE multitumor array
[3] = target: T1, CD133 protein (human), as expressed by human cell lines and tumor tissue (Homo sapiens); assay: Western blot of lysates of CD133-expressing cells
[4] = target: T1, CD133 protein (human), as expressed by human cell lines and tumor tissue (Homo sapiens); assay: Western blot of crude cell lysates, primary antibody 1 ug/ml
[5] = target: T1, CD133 protein (human), as expressed by human cell lines and tumor tissue (Homo sapiens); assay: immunofluorescence on H596 xenograft tumor sections
[6] = target: T1, CD133 protein (human), as expressed by human cell lines and tumor tissue (Homo sapiens); assay: immunofluorescence on FFPE cell pellets (HT29, SW620, U87), 10 ug/ml
[7] = target: T1, CD133 protein (human), as expressed by human cell lines and tumor tissue (Homo sapiens); assay: immunofluorescence on FFPE human tumor micro arrays
[8] = target: T1, CD133 protein (human), as expressed by human cell lines and tumor tissue (Homo sapiens); assay: immunofluorescence on FFPE melanoma tumor array

Measured: binding

B1: anti-CD133 monoclonal antibody mAb 133-3 (antibody, V domains shown)
VH: QSVEESGGRLVTPGTPLTLTCTVSGFSLSRYAMSWVRQAPGKGLDWIGYIDIGGGAYYASWAKGRFTISETSTTVYLKVNSPTTEDTATYFCARGVANSDIWGPGTLVTVSS
VL: ALVMTQTPSPVSAAVGGTVTINCQSSQSVFNNKWLSWYQQKPGQPPKLLIYFVSTLASGVPSRFKGSGSGTQFTLTISGVQCDDAATYYCQGSDYSSGWYSPFGGGTEVVVEG
notes: Rabbit IgG from a hybridoma, cloned and made recombinantly in HEK293 cells
binds: all assays above
